# Test results: PubChem BioAssay AID493014 (National Center for Advancing Translational Sciences (NCATS), 2011)
# This is one part of the list. Shown are side measurements of this screen, not its main read-out; they come without a call. The list favours compounds with an active or inconclusive main result. Potencies come from curve fits of mixed quality, noted in brackets.
# Assay: qHTS Assay to Find Inhibitors of Chronic Active B-Cell Receptor Signaling
# Settings: ABC-DLBCL IkBa-CBG/CBR reporter, luminescence ratio (green luciferase fused to IkBa over red control in TMD8 lymphoma cells), 4 h
# How it was run: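 Doxycycline induced both beetle luciferases in TMD8 lymphoma cells; IKK-driven degradation limits the IkappaBalpha-fused green signal, while red luminescence normalises for cell number and nonspecific effects. Compounds tested up to 46 uM, 4 hrs.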
# [1] = measured here: CBR red luminescence, cell number
# [2] = measured here: IkBa-CBG green luminescence
SMILES,AC50 [1],AC50 [2]
Cc1c(Cl)cnc(NC(=O)COC(=O)C2CC3CCCC(C2)C3=O)c1Cl (stereo not drawn),"6.51 µM [falling, single point]",
COc1ccc(NC(=O)CN(C)C(=O)c2oc3c(ccc4ccccc43)c2C)cc1,"2.31 µM [rising, partial curve, poor fit]",
CCOC(=O)c1c(C)[nH]c(C(=O)OCC(=O)Nc2sccc2C(N)=O)c1C,"10.3 µM [falling, partial curve, poor fit]",
Cc1ccc(S(=O)(=O)N2CCCC2C(=O)O)cc1 (stereo not drawn),"6.31 µM [falling, single point]",
Cc1cc(NC(=O)c2ccccc2-c2ccccc2C(=O)O)no1,"18.4 µM [rising, partial curve, poor fit]",
COC(=O)c1ccc(C(=O)NC(=S)Nc2nc3c(s2)CCCC3)cc1,"1.03 µM [falling, full curve]",
Cc1ccc(-n2c(C)cc(C(=O)OCC(=O)N(C)C3CCS(=O)(=O)C3)c2C)cc1 (stereo not drawn),"5.8 µM [falling, partial curve, poor fit]",
O=[N+]([O-])c1cccc(-c2cnc3ccccc3n2)c1,"6.31 µM [rising, partial curve]",
O=C(NCCc1ccc(Cl)cc1)c1cnccn1,"2.51 µM [rising, single point]",
COc1ccc(/C=N\NC(=O)c2sc(N)nc2C)cc1OC,"11.2 µM [falling, partial curve, poor fit]",
O=C(NC1CC1)C1C2C3C4CC5C3C5C4C12 (stereo not drawn),"6.31 µM [rising, single point]",
O=C(NCc1ccc(-c2nc3ccccc3s2)cc1)c1ccco1,"23.1 µM [rising, single point]",
COC(=O)c1ccc(CSc2nnc(Nc3ccccc3OC)s2)o1,"15.8 µM [falling, single point]",
Clc1ccc(CN2CCC(Cc3ccccc3)CC2)cc1,"23.1 µM [rising, single point]",
CCOc1ccc(N(C(=O)c2snc(C(N)=O)c2N)C(C)C(=O)NC2CCCCC2)cc1 (stereo not drawn),"35.5 µM [falling, single point]",
O=C(O)CN1C2=NCCCN2c2ccccc21,"22.4 µM [rising, single point]",
Cc1ccc(NC(=O)COc2ccc(N(C)C(=O)C(C)(C)C)cc2)cc1S(=O)(=O)N1CCCCC1,"0.116 µM [falling, full curve, poor fit]",
Cc1ccccc1Nc1nc(N)nc(-c2oc3ccccc3c2C)n1,"0.224 µM [falling, full curve, poor fit]",
Cc1oc2cc(O)ccc2c(=O)c1Oc1ccc(F)cc1,"2.82 µM [rising, partial curve, poor fit]",
CCOCC(=O)Nc1nc2ccc(S(C)(=O)=O)cc2s1,"7.31 µM [rising, partial curve]",
CSc1nc(-c2ccccc2)nc(NC(=O)C(C)C)c1C(C)=O,"1.78 µM [falling, full curve, poor fit]",

SMILES,AC50 [1],AC50 [2]
COc1ccc2nc(-c3ccc(N)cc3)[nH]c2c1,"13 µM [falling, partial curve]",
Cc1cccc(NC(=O)Nc2ccc3c(c2)N(C)C(=O)CS3)n1,"0.58 µM [rising, full curve, poor fit]",
O=C(N/N=C/c1ccc2c(c1)OCO2)C1CC1,"22.4 µM [falling, partial curve, poor fit]",
CCCNC(=O)C(Cc1ccc(C(F)(F)P(=O)(OCC)OCC)cc1)NC(=O)c1ccc(C#N)cc1 (stereo not drawn),"18.4 µM [rising, single point]",
COc1ccc(/C=C\C(=O)Oc2cccc(/C=N/NC(=O)Cc3ccc(OC)c(OC)c3)c2)cc1,"2.59 µM [rising, partial curve]",
CC(=O)c1sc(NC(=O)c2cc(S(=O)(=O)N3CCOCC3)ccc2F)nc1C,"25.9 µM [falling, single point]",
CCCCCCOc1ccc(/C=C/C(=O)N2CCOCC2)cc1OC,"2.51 µM [rising, partial curve, poor fit]",
COc1ccc(-c2cc(=O)oc3c(C)c(O)c(CN(C)C)cc23)cc1,"1.41 µM [falling, full curve]",
Cc1ccc(C(=O)O)cc1-c1ccc(C=C2C(=O)c3ccccc3C2=O)o1,"11.2 µM [falling, partial curve, poor fit]",
O=C(Nc1nccs1)C12CC3CC(C1)CC(C(=O)Nc1nccs1)(C3)C2,"15.8 µM [falling, partial curve]",
COc1cc(/C=C/C(=O)OCC(=O)Nc2ccccc2Sc2ccc(Cl)cc2)ccc1O,"29.1 µM [falling, single point]",
O=[N+]([O-])c1cccc(CNc2ccc3c(c2)CCC3)c1,"8.2 µM [rising, partial curve, poor fit]",
CC(=O)N(C)c1nc(-c2ccc(Cl)cc2)cs1,"2.24 µM [rising, partial curve, poor fit]",
CCOC(=O)c1ccc(N2CCN(c3cccc(Cl)c3)CC2)c(NC(=O)Nc2ccc(OC)cc2OC)c1,"1 µM [rising, partial curve, poor fit]",
COc1ccc(/C=C/C(=O)Nc2c(C)nn(C)c2C)cc1COc1ccc(Cl)cc1Br,"2.31 µM [rising, partial curve]",
N/C(=N\OC(=O)CSc1ccccc1)c1cccc([N+](=O)[O-])c1,"25.9 µM [rising, partial curve]",
CCOC(=O)c1c(NC(=S)Nc2ccccc2C)sc2c1CCC2,"1.84 µM [rising, full curve]",
O=C(NCCc1ccccc1)c1cc2sccc2n1Cc1ccccc1,"12.6 µM [rising, single point]",
O=C(CC(c1ccccc1)c1ccccc1)Nc1ncn[nH]1,"0.206 µM [falling, full curve]",
O=C(CCCc1ccccc1)Nc1cccc(C(=O)O)c1,"0.316 µM [falling, full curve]",
NC(=S)NNC(=O)c1cccc(Cl)c1,"31.6 µM [rising, partial curve, poor fit]",

# Record cards, from the list above.
# CCCCCCOc1ccc(/C=C/C(=O)N2CCOCC2)cc1OC reads AC50 [1]: 2.51 µM [rising, partial curve, poor fit]
# CCCNC(=O)C(Cc1ccc(C(F)(F)P(=O)(OCC)OCC)cc1)NC(=O)c1ccc(C#N)cc1 (stereo not drawn) reads AC50 [1]: 18.4 µM [rising, single point]
# O=[N+]([O-])c1cccc(-c2cnc3ccccc3n2)c1 reads AC50 [1]: 6.31 µM [rising, partial curve]
# O=C(Nc1nccs1)C12CC3CC(C1)CC(C(=O)Nc1nccs1)(C3)C2 reads AC50 [1]: 15.8 µM [falling, partial curve]

# Later entries.

SMILES,AC50 [1],AC50 [2]
COc1ccc(CCNC(=O)[C@H](C)N2C(=O)N3CCc4c([nH]c5ccccc45)[C@@]3(C)C2=O)cc1,"25.1 µM [falling, partial curve, poor fit]",
O=C(N/N=C(\c1ccccc1)c1cccnc1)c1cccc(F)c1,"10 µM [rising, partial curve, poor fit]","22.4 µM [falling, single point]"
O=C(Nc1cc2c3c(c1)CC(=O)N3CCC2)c1ccc(Br)cc1,"0.291 µM [rising, full curve]",
Cc1ccc(Cl)cc1N1CCN(C(=S)NCc2ccco2)CC1,"35.5 µM [falling, single point]","35.5 µM [rising, partial curve, poor fit]"
O=C(Nc1nnc(-c2ccco2)s1)c1ccccc1,"3.16 µM [falling, partial curve, poor fit]",
Cc1ccc(CNC(=O)Nc2ccc(OC(F)(F)F)cc2)n1C,"35.5 µM [rising, single point]",
COC(=O)c1[nH]c2ccccc2c1NC(=O)CN1CCN(C/C=C/c2ccccc2)CC1,"0.0891 µM [rising, full curve, poor fit]","2.82 µM [falling, partial curve, poor fit]"
O=C(Cn1cc2c(n1)CCCCC2)NCc1cccs1,"35.5 µM [falling, single point]",
Cc1cc(C)cc(-n2c(SCC(=O)Nc3cccc(S(=O)(=O)NC4=NCCCCC4)c3)nc3ccccc3c2=O)c1,"10.3 µM [falling, partial curve, poor fit]",
Cn1c2ccccc2c(=O)n2c(=O)c3ccccc3cc12,"15.8 µM [falling, partial curve]",
O=C(Nc1ccn(C2CC(OC(=O)c3ccccc3)C(CO)O2)c(=O)n1)c1ccccc1 (stereo not drawn),"12.6 µM [rising, partial curve, poor fit]",
CC(=O)Cn1c2ccccc2n2nc(CCC(=O)O)c(=O)nc12,"35.5 µM [rising, single point]",
CSc1ccc(/C=C/C(=O)N2CCN(c3ccccn3)CC2)cc1,"0.355 µM [falling, full curve]","17.8 µM [falling, partial curve, poor fit]"
Nc1ccc(-c2cc(-c3cccc(N)c3)nc(-c3ccccc3)n2)cc1,"25.9 µM [falling, partial curve, poor fit]",
CN(C)c1ccc(C2Nc3cccc4cccc(c34)N2)cc1,"35.5 µM [falling, single point]",
Cc1csc(N/N=C/c2ccccn2)n1,"35.5 µM [falling, single point]","35.5 µM [falling, partial curve, poor fit]"
Nn1cnnc1N/N=C/c1ccc(Cl)cc1Cl,"35.5 µM [falling, single point]",
O=C(c1ccccc1)c1ccc2cc(O)ccc2c1,"0.112 µM [rising, full curve, poor fit]",
COC(=O)c1cc(-c2c(C)nn(-c3ccccc3)c2C)n[nH]1,"7.31 µM [falling, partial curve]",
CCc1[nH]nc2c1C(Cc1ccccc1)C(C#N)=C(N)O2 (stereo not drawn),"14.6 µM [rising, partial curve, poor fit]",
COCCCNC(=O)CN(c1cc(C(F)(F)F)ccc1Cl)S(C)(=O)=O,"0.447 µM [rising, full curve, poor fit]",
